Laboratory results as given in patent publication US20260240837A1, “Compositions Reducing the Expression or Activity of C1 GALT1 for Treating Ewing Sarcoma” (University of Massachusetts Medical School, priority 2023, published 2026).
Entries after “also recorded” stand apart in the source; their conditions may differ. At least one compound was matched to its structure with a doubt left. Some entries share one result that the patent states for a list of compounds.

Protein sequences, listed by entry. Tags and fused reporters are not part of them. Lines headed by an entry give the natural chain unless they say otherwise; changes in a name come on top.
UniProt Q9NS00: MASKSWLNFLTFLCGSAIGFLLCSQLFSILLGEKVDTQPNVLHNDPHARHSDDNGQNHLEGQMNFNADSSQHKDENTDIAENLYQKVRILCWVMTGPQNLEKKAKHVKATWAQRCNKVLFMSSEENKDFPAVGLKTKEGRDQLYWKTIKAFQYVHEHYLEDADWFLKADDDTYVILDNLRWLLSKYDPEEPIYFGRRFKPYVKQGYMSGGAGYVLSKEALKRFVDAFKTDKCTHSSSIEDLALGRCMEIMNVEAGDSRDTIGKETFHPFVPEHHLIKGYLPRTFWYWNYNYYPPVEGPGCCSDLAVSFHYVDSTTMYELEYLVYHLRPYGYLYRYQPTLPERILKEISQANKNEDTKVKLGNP

Legend:
EWSR1::FLI1 target genes = experiment: qRT-PCR of EWSR1::FLI1 target genes in A673 cells; assay type: cell-based, human; conditions: 100 nM for 72 hours
[1] = system: GLI1 binding to EWSR1 regions containing GLI-binding motifs; experiment: Chromatin immunoprecipitation (ChIP) of GLI1 in A673 cells; assay type: cell-based, human; conditions: 100 nM for 72 hours, FIG. 6E
SMO [2] = experiment: Immunoblot and qRT-PCR of SMO in A673 cells; assay type: cell-based, human
Procedure: Total RNA was isolated from cells using Trizol (Invitrogen, Cat #15596). cDNA was synthesized using Proto Script II reverse transcription kit (New England Biolabs (NEB), Ipswich, MA, Cat #E6560) and real-time PCR reactions were performed using Quant Studio 3 (Applied Biosystems by Thermo Fisher Scientific) using primer sequences listed in Table 2. Gene expression was normalized to that of GAPDH. A control without reverse transcription (no-RT control) was carried out in parallel to rule out the possibility of DNA contamination. The experiments were performed three independent times.
Cells extracts were prepared in radioimmunoprecipitation assay (RIPA) buffer (1% Triton-X100, 0.1% sodium dodecyl sulfate (SDS), 0.5% deoxycholic acid, 20 mM tris(hydroxymethyl)aminomethane (Tris), pH 7.5, 10% glycerol) containing 1× complete ethylenediaminetetraacetic acid (EDTA)-free protease inhibitor cocktail (Roche, Basel, Switzerland, Cat #11873580001) and 1 mM phenylmethylsulfonyl fluoride (PMSF). For the immunoblot in FIG. 7L, cells expressing FLAG-SMO (wild-type and mutants) were treated with 10 μM MG132 (Selleck Chemicals, Houston, TX, Cat #S2619; CAS No. 1211877-36-9) for 12 hours or 100 nM bafilomycin A1 (Selleck Chemicals, Cat #S1413; CAS No. 88899-55-2) for 6 hours. […]

GLI1 = experiment: Immunoblot and qRT-PCR of GLI1 in A673 cells (readout of Hh signaling); assay type: cell-based, human; conditions: 100 nM for 72 hours, FIG. 7B
O-glycosylated SMO [3] = experiment: PNA lectin pull-down assay of O-glycosylated SMO in A673 cells; assay type: cell-based, human; conditions: 100 nM ITZ for 0-48 hours, FIG. 7I
SMO [4] = experiment: Cycloheximide chase assay of SMO in A673 cells; assay type: cell-based, human; conditions: cycloheximide 30 μg/ml with 100 nM ITZ, FIG. 7J
Hh signaling = Hh signaling (C1GALT1 and SMO immunoblot) in TC-71, TC-32 and TC-106 cells; assay type: cell-based, human; conditions: 48 hours, FIG. 9D
O-glycosylated SMO [5] = experiment: PNA lectin pull-down assay of O-glycosylated SMO in TC-71 cells; assay type: cell-based, human; conditions: 100 nM ITZ for 48 hours, FIG. 9E
TC-71 cells = experiment: PRESTOBLUE cell viability assay in TC-71 cells; assay type: cell-based, human
PARP1 cleavage = experiment: Immunoblot of cleaved PARP in TC-71 cells; assay type: cell-based, human; conditions: 0, 20, 40, 60 and 80 nM for 48 hours, FIG. 10B
TC-71 xenografts [6] = experiment: Tumor formation of subcutaneous TC-71 xenografts in NSG mice; assay type: in vivo
TC-71 xenografts [7] = experiment: Immunohistochemistry of TC-71 xenografts; assay type: in vivo, mice; conditions: 100 mg/kg daily oral, 18 days, FIG. 11B
C1GALT1 [8] = biological target: T1, C1GALT1 (Homo sapiens, UniProt Q9NS00); conditions: previous studies (Lin et al., 2018); cited from earlier work
C1GALT1 [9] = biological target: T1, C1GALT1; experiment: Immunoblot of C1GALT1 protein levels in A673 cells; assay type: cell-based; set-up: endogenous in cells; host or cells: A673; conditions: ITZ 0-100 nM for 72 hours
[10] = TC-71 cells, 72 hours, FIGS. 10A and 10E

**Q.** Which results are given for CCC(C)n1ncn(-c2ccc(N3CCN(c4ccc(OCC5COC(Cn6cncn6)(c6ccc(Cl)cc6Cl)O5)cc4)CC3)cc2)c1=O (stereo not shown) [ITZ, itraconazole]?
**A.** expression of genes normally positively regulated by EWSR1::FLI1 (EWSR1::FLI1 target genes; FIG. 5E): reduced; expression of genes normally negatively regulated by EWSR1::FLI1 (EWSR1::FLI1 target genes; FIG. 5F): increased; GLI1 binding to predicted GLI-binding sites in EWSR1 [1]: reduced; total SMO levels in whole cell extracts (SMO [2]; 100 nM ITZ, later time points (0-48 hours), FIG. 7I): subsequent reduction; SMO mRNA levels (SMO [2]; 100 nM for 72 hours, FIG. 7B): reduced; SMO protein levels (SMO [2]; 100 nM for 72 hours, FIG. 7B): reduced; GLI1 mRNA levels (GLI1): reduced; GLI1 protein levels (GLI1): reduced; time to rapid decrease of O-glycosylated SMO (O-glycosylated SMO [3]): ≤ 12 h; half-life of SMO (SMO [4]): substantially reduced; Hh signaling (Hh signaling): reduced; SMO O-GalNAc-glycosylation (O-glycosylated SMO [5]): reduced; decreased proliferation following ITZ treatment, with ectopic EWSR1::FLI1 (TC-71 cells; TC-71 cells expressing EWSR1::FLI1 under CMV promoter, 100 nM ITZ for 72 hours, FIG. 10F): counteracted; cell viability (TC-71 cells; TC-71 cells, 0, 20, 40, 60, 80 and 100 nM for 72 hours, FIG. 10A): dose-dependent reduction; efficacy compared to sonidegib and vismodegib (TC-71 cells; [10]): substantially higher efficacy; PARP1 cleavage (apoptosis) (PARP1 cleavage): increase; also recorded: cleavage of PARP; growth of xenografts (TC-71 xenografts [6]; TC-71 xenografts in NSG mice, 100 mg/kg daily by oral gavage, 18 days, FIG. 11A): markedly suppressed; growth of xenografts following removal of the drug (TC-71 xenografts [6]; TC-71 xenografts, ITZ for 18 days, then monitored for additional 15 days, FIG. 11I): did not increase; ability to suppress xenograft growth, with ectopic EWSR1::FLI1 (TC-71 xenografts [6]; xenografts of TC-71 cells expressing EWSR1::FLI1, 100 mg/kg daily oral, FIG. 11H): counteracted; C1GALT1 levels in tumors (TC-71 xenografts [7]): substantially reduced; FLI1 levels in tumors (TC-71 xenografts [7]): substantially reduced; GLI1 levels in tumors (TC-71 xenografts [7]): substantially reduced; Ki67 staining in tumors (TC-71 xenografts [7]): reduced; SMO levels in tumors (TC-71 xenografts [7]): substantially reduced; inhibition of C1GALT1 (C1GALT1 [8]): inhibits; C1GALT1 protein levels (C1GALT1 [9]): reduced in a dose-dependent manner

**Q.** For CS(=O)(=O)c1ccc(C(=O)Nc2ccc(Cl)c(-c3ccccn3)c2)c(Cl)c1 [vismodegib], which “concentration required for a comparable decrease in cell viability” value (TC-71 cells; [10]) is on record?
**A.** Its value is 50-200 times that of ITZ.

**Q.** With Cc1c(C(=O)Nc2ccc(N3C[C@@H](C)O[C@@H](C)C3)nc2)cccc1-c1ccc(OC(F)(F)F)cc1 [sonidegib] as the compound, how does the “concentration required for a comparable decrease in cell viability” value (TC-71 cells; [10]) read?
**A.** The value was 50-200 times that of ITZ.
